# Library screen at single concentrations

Chains of the proteins cited; added tags and fusions are not shown. Residues count along the entry.
UniProt A4I591, 1-473: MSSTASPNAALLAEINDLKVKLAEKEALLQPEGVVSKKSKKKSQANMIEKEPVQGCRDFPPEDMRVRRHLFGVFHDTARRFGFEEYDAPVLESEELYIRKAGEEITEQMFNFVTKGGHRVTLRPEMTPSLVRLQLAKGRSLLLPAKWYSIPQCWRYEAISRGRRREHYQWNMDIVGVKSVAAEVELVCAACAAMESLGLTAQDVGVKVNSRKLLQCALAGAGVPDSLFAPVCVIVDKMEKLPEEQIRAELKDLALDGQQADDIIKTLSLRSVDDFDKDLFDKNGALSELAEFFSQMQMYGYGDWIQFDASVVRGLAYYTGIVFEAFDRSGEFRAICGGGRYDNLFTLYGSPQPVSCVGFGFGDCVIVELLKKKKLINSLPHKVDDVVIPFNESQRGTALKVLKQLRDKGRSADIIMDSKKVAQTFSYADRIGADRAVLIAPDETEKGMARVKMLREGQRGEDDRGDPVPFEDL
UniProt P9WPC5, whole entry: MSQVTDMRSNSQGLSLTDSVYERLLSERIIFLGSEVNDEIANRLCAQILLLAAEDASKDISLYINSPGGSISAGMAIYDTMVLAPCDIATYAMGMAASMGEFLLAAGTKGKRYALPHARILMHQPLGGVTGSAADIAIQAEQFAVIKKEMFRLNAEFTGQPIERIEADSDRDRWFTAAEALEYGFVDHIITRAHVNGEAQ
UniProt P9WPC3, whole entry partner: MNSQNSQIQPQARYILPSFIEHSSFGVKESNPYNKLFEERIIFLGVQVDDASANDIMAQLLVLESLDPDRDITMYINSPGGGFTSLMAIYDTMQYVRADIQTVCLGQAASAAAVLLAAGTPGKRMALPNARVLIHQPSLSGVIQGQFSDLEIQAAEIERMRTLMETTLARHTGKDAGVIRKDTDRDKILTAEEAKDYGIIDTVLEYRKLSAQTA
UniProt Q4DA54, 1-478: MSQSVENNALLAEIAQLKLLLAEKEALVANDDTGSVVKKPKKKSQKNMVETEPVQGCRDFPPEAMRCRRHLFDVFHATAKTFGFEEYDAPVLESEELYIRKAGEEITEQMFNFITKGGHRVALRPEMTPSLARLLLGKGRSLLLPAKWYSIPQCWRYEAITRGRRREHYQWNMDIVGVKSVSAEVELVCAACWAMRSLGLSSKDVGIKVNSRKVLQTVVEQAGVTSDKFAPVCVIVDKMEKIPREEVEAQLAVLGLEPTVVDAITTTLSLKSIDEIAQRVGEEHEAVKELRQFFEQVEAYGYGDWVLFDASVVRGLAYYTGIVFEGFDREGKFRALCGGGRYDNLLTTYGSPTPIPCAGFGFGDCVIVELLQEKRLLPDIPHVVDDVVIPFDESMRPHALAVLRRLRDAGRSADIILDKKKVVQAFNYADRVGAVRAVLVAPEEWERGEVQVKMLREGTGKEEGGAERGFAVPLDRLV

Values are the deposited “Percent Effect”, in %.
The record does not define 0% and 100%; most values in the screen are far below 50% and negative numbers occur (in some assays of this library far below -100).
This is an unselected part of the compounds tested.
A dash means the value is not listed here; it may have been measured.

Toxoplasma: 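Assay of Toxoplasma gondii numbers, read through their beta-galactosidase reporter with a colour substrate. Concentration: 10 µM. The record gives no direction; the compounds picked for IC50 retests had high values, so higher reads as fewer parasites. About 67,000 compounds were tested under these conditions; 0.38% (about 260) showed 50% or more at least once.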
T. brucei: 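Whole-parasite assay of Trypanosoma brucei over 72 hours; the read-out is not stated. Tested at 30 µM. Direction is inferred from retests: higher values go with stronger inhibition. Values scatter widely below zero; nearly all retest evidence comes from the higher of the two concentrations used. Of about 64,000 compounds tested this way, about 940 (1.5%) reached 50% or more in at least one test.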
LiHisRS: 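Histidine-tRNA ligase, Leishmania infantum (UniProt A4I591). Enzyme assay of histidyl-tRNA synthetase; the read-out is not stated. Compounds at 30 µM. Higher reads as stronger inhibition (inferred: compounds with an IC50 in retests scored well above the rest). The assay is labelled LdHisRS but filed under L. infantum. About 69,000 compounds were tested under these conditions; 0.6% (about 410) showed 50% or more at least once.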
ClpP1P2: 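Protease assay of ClpP1P2, read by the AMC dye that it sets free. Target: ClpP1P2, Mycobacterium tuberculosis (UniProt P9WPC5 and UniProt P9WPC3). Concentration: 50 µM. Higher reads as stronger inhibition, judged from the few compounds that gave an IC50. Most other retested compounds had strongly negative values. About 69,000 compounds were tested under these conditions; 0.015% (about 10) showed 50% or more at least once.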
TcHisRS: 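Histidine-tRNA ligase, Trypanosoma cruzi CL Brener (UniProt Q4DA54). Enzyme assay of histidyl-tRNA synthetase; the read-out is not stated. Compounds at 30 µM. The record gives no direction; compounds that gave an IC50 in retests scored well above the rest, so higher reads as stronger inhibition. Of about 69,000 compounds tested this way, about 31 (0.045%) reached 50% or more in at least one test.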

structure	Toxoplasma	T. brucei	LiHisRS	ClpP1P2	TcHisRS
CCCc1cc(C(=O)NCCN2CCCS2(=O)=O)[nH]n1	4.76%	-	7.339%	-32.76%	4.118%
Cc1nc(CN2CCN(C(=O)CCc3cccc(Cl)c3)CC2)no1	-12.35%	-59.08%	0%	-7.89%	9.302%
CCC(c1nc(C(C)C)nn1-c1ccccn1)n1cccn1 (configuration not stated)	4.777%	-21.07%	21.21%	7.891%	-0.6452%
COCC(=O)N1CCC2(CC1)CC(c1cnn(C)c1)C(=O)N2 (configuration not stated)	-0.4515%	-45.57%	18.58%	7.703%	5.376%
CCn1ncc2c1C(COC)CN(Cc1ccc(C)o1)C2 (configuration not stated)	26.36%	-42.86%	6.944%	-9.097%	1.869%
O=C(c1ccco1)N1C(CN2CCOCC2)[C@]2(O)CC[C@H]1CC2 (some centres not stated)	-	-	16.33%	-1.178%	13.48%
CC(C)Sc1ncccc1C(=O)NCc1ccoc1	-8.981%	0.2894%	14.04%	7.772%	2.579%
O[C@H]1Cc2ccccc2[C@H]1Nc1ncccc1C(F)(F)F	-8.085%	-14.87%	6.25%	-9.879%	2.532%
O=C(NCC1CC1)[C@@H]1C[C@@H]2CCN(Cc3ccoc3)C[C@@H]2O1	-	-	13.89%	-0.4137%	9.524%
Cc1cnc(Cn2cc(-c3cccc(C(C)N(C)C)c3)nn2)cn1 (configuration not stated)	9.101%	1.857%	2.083%	-5.814%	3.352%
CO[C@H]1CN(C(C)C)C[C@@H]1NC(=O)Nc1ccc(C(F)(F)F)cc1	4.768%	82.01%	4.918%	-3.897%	6.438%
[H][C@@]12CCC(=O)N(CCc3ccccc3)[C@]1([H])CCN(S(=O)(=O)CC)C2	6.784%	11.19%	-	-	-
CCOC(=O)c1n[nH]cc1CN1CCCC(N(C)Cc2ccccc2)C1 (configuration not stated)	-1.281%	-33.34%	5.882%	-2.591%	-1.235%
Cc1ccc(CNC(=O)c2cc(Cn3ccnc3C(C)C)[nH]n2)o1	13.5%	-30.53%	-5.128%	-2.845%	1.205%
COCCOC1CCN(C(C(=O)O)c2ccc(OC)c(F)c2)CC1 (configuration not stated)	-8.075%	-2.66%	1.399%	-8.553%	9.453%
CCN(CC1CCOC1)C(=O)Nc1ccc(N2CCCC2)nc1 (configuration not stated)	-50.3%	-12.11%	-44.68%	-2.135%	4.58%
O=C(c1cnc(NCc2sccc2Br)c(Cl)c1)N1CCCCC1	-4.463%	-12.44%	18.75%	-10.75%	8.861%
NC(=O)C1(CCCc2cccnc2)CCCN(c2ncccn2)C1 (configuration not stated)	-10.42%	0.06305%	2.857%	3.701%	-1.075%
O=C(O)C(F)(F)F.O=C1COC2(CCN(Cc3ccoc3)CC2)CN1c1ccsc1	1.165%	9.997%	-	-	-
COc1cn(-c2ccccc2)nc1C(=O)NCCCN1CCCC(C)C1 (configuration not stated)	-2.329%	29.9%	13.7%	-0.7029%	3.817%
Cn1ccnc1COc1ccc(NC(=O)C2CCCO2)cc1 (configuration not stated)	-4.793%	-16.07%	21.33%	1.943%	-1.63%
CC(=O)N1[C@H](CN(C)C)C[C@@H]2CN(C(=O)c3ccsc3)CC[C@@H]21	-	-	15.38%	-11.54%	6.796%
[H][C@]12CN(Cc3cccc(OC(F)(F)F)c3)CCN1C(=O)N(C)C2	4.041%	-7.433%	-	-	-
CN(C)C(=O)c1cccc(NC(=O)c2cnn(C)c2)c1	-9.247%	-26.72%	10%	-2.999%	9.091%
CC(=O)CN1CC2(CCNCC2)COc2ccccc2S1(=O)=O.O=C(O)C(F)(F)F	12.46%	-39.1%	-	-	-
COCC(=O)N1CCC2(CC1)CNc1ccc(F)cc12	-	-	14.53%	5.788%	3.743%
OCCN1CCC(CNCc2cn(-c3ccccc3)nn2)CC1	10.24%	-32.06%	6.25%	8.282%	5.172%
CC(C)c1nnc2n1CCN(C(=O)c1ccc(-n3cnnc3)cc1)C2	22.98%	-29.22%	24%	1.812%	1.132%
COc1ncc(NCc2ccc(C#N)cc2)cc1C(N)=O	4.36%	-0.4162%	3.109%	-29.57%	3.867%
CC(C)(C(=O)NCC1CCN(Cc2ccccn2)C1)c1ccccc1 (configuration not stated)	19.64%	-75.19%	16.39%	-7.72%	4.721%
Cc1nn(C)c(=O)c2nn(-c3ccc(F)cc3)c(C)c12	-17.45%	-10.11%	7.692%	13.53%	-1.031%
COc1cc(NC2CCCN(c3ncccn3)C2)cc(OC)c1 (configuration not stated)	1.952%	-6.396%	10.59%	18.52%	14.07%
[H][C@]12CC[C@]([H])(CN(c3ncccn3)C1)N(C(=O)CSc1nc(C)n[nH]1)C2	6.012%	7.688%	-	-	-
CN(c1ccc(F)cc1)S(=O)(=O)c1cc2c(c(C(=O)O)c1)OCCO2	0.7399%	-3.672%	10.99%	-8.98%	6.627%
CC(C)n1ccnc1CN1CCCC1c1cccc(-n2ccnc2)n1 (configuration not stated)	-3.6%	6.348%	-11.58%	-4.797%	5.224%
Cc1ccc2nc(C3CCN(CCO)CC3)nn2c1	-2.991%	-59.9%	9.434%	12.47%	2.703%
O=S(=O)(c1cccnc1)N1C[C@@H]2CC[C@H](C1)N(Cc1ccccc1)C2	-	-	13.98%	-9.908%	10.99%
[H][C@]12CCN(C(=O)Cc3ccc(OC)cc3)[C@@]1([H])CCC(=O)N2	0.8819%	-34.6%	-	-	-
CS(=O)(=O)N1CC[C@H]2OCC[C@@]2(C(=O)NCC2CC2)C1	-	-	15.45%	10.19%	-4.233%
Cc1cccc(CN2C[C@@H]3CCCO[C@@H]3[C@H](Nc3ccccn3)C2)n1	-	-	4.167%	-19.07%	1.869%
CSCCC(CO)NC(=O)c1ccc2[nH]/c(=N\S(C)(=O)=O)sc2c1 (configuration not stated)	-	14.67%	21.74%	-2.727%	7.921%
O=C(NC1CCCCC1)c1ccc(COCC(F)(F)F)o1	12.53%	-32.33%	-7.609%	9.543%	1.98%

From ChEMBL document CHEMBL3988442, “University of Dundee, Small-Polar-MMV Screening Library” (2021).